Results taken from patent US20220242961A1.
Results are given in words; binding and its absence hold for the method and conditions named. Some binding calls cover weakened binding; strength is not graded here.

By UniProt entry, the sequences of proteins in these tests, tags left out. Where a name states a change or a piece, a line headed by the entry shows the natural chain unless it says otherwise. Residues count along the entry.
UniProt Q07011: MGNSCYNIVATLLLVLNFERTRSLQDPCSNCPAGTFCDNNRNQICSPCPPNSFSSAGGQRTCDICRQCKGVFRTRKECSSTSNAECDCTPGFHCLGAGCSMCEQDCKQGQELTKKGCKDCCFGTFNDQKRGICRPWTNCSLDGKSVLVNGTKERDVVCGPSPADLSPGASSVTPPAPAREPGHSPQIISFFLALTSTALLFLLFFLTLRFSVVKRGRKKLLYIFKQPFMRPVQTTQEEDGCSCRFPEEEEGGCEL
UniProt P41273, residues 71-254: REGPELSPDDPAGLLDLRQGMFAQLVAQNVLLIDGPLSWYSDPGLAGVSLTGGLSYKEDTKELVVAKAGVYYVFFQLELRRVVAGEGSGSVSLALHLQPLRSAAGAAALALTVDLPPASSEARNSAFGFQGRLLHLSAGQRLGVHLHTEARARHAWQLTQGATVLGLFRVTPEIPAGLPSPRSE

Assays:
[1] = molecular target: Recombinant Human 41BB-His tag protein (Sino Biological, 10041-H08H) (human) (UniProt Q07011); assay: Octet, 41BB-His on Ni-NTA biosensor, sequential association at 100 nM
[2] = molecular target: Recombinant Human 41BB-His tag protein (Sino Biological, 10041-H08H) (human) (UniProt Q07011); assay: Octet BLI, 41BB-His captured on Ni-NTA biosensor, analyte 100 nM, first association step
[3] = molecular target: Recombinant Human 41BB-His tag protein (Sino Biological, 10041-H08H) (human) (UniProt Q07011); assay: Octet BLI, 41BB-His captured on Ni-NTA biosensor, analyte 100 nM, two sequential association steps (self-binding control)
[4] = molecular target: Recombinant Human 41BB-His tag protein (Sino Biological, 10041-H08H) (human) (UniProt Q07011); assay: Octet BLI, 41BB-His captured on Ni-NTA biosensor and first loaded with 41B01; recombinant human 41BB-ligand 100 nM as second analyte

Measured: binding

Recombinant Human 41BB Ligand (from UniProt P41273 71-254)
binds: all assays above
